The supplement of paper PMC3682954
Counter-ions that a name gives are not always drawn. ± gives the standard deviation of the averaged measurements. The list shows a part of the results. Repeats are few or missing, and single values can be far off.

Tested on: RAW 264.7
Assay: HMGB1-induced TNF-alpha production relative to HMGB1-stimulated control; higher = more TNF-alpha secretion (less inhibition)
Settings: stimulus: HMGB1 5 ug/ml, 18 h
[1] = compound concentration: 1 ug/ml

SMILES | HMGB1-induced TNF-alpha production (compound concentration: 3 uM) [%] | HMGB1-induced TNF-alpha production [1] [%]
COc1ccc2[nH]cc(CCN)c2c1 [5-Methoxytryptamine] | 108 | –
COc1ccc2[nH]cc(CCN)c2c1 [O-Methylserotonin hydrochloride] | 92.7 | –
C/C=C1/C[N@+]2(C)CC[C@]34C(=C(C=O)[C@H]1C[C@@H]32)Nc1ccccc14 | – | 79.2
Cc1ncc(CNC(=O)N(CCCl)N=O)c(N)n1 [Nimustine hydrochloride] | 113 | –
Cc1ncc(CNC(=O)N(CCCl)N=O)c(N)n1 | 85.2 ± 9.1 | –
COC(=O)[C@]1(C)CC[C@]2(C)CC[C@]3(C)C4=CC=C5C(=CC(=O)C(O)=C5C)[C@]4(C)CC[C@@]3(C)[C@@H]2C1 | 6.04 | –
C#C[C@]1(O)CC[C@H]2[C@@H]3CCC4=Cc5nc6nc7ccccc7n6cc5C[C@]4(C)[C@H]3CC[C@@]21C | 85.6 | –
NCCc1cc(O)c(O)cc1O | 80.8 | –
CCC(=O)O[C@@](Cc1ccccc1)(c1ccccc1)[C@@H](C)CN(C)C [Levopropoxyphene napsylate] | 131 | –
CC(C)=CCC[C@]1(C)C=Cc2c(O)c3c(c(CC=C(C)C)c2O1)O[C@]12C(=C[C@@H]4C[C@H]1C(C)(C)O[C@@]2(C/C=C(/C)C(=O)O)C4=O)C3=O | -3.1 | –
NC(CCP(=O)(O)O)C(=O)O (racemic) [(±)-2-Amino-4-phosphonobutyric acid] | 97.3 | –
O=C1C[C@@H]2OCC=C3CN4CC[C@]56c7ccccc7N1[C@H]5[C@H]2[C@H]3C[C@H]46 [Strychnine] | 101 | 84
O=C1C[C@@H]2OCC=C3CN4CC[C@]56c7ccccc7N1[C@H]5[C@H]2[C@H]3C[C@H]46 | 90.2 ± 8.6 | –
N#Cc1nn(-c2c(Cl)cc(C(F)(F)F)cc2Cl)c(N)c1[S+]([O-])C(F)(F)F (stereo not drawn) | 85.5 ± 1.4 | –
CC[C@@]1(O)C(=O)OCc2c1cc1n(c2=O)Cc2cc3ccccc3nc2-1 [(S)-(+)-Camptothecin] | 58.3 | –
CC[C@@]1(O)C(=O)OCc2c1cc1n(c2=O)Cc2cc3ccccc3nc2-1 | 45.6 | –
CC[C@@]1(O)C(=O)OCc2c1cc1n(c2=O)Cc2cc3ccccc3nc2-1 [Camptothecin] | 40.4 | 7.29
CC[C@@]1(O)C(=O)OCc2c1cc1n(c2=O)Cc2cc3ccccc3nc2-1 [Camptothecine (S,+)] | 70.3 | –
C=CCN(C1=NCCN1)c1c(Cl)cccc1Cl [Alinidine] | 78.4 | –
Cc1c(C(=O)c2cccc3ccccc23)c2cccc3c2n1[C@H](CN1CCOCC1)CO3 [( R)-(+)-WIN 55,212-2 mesylate] | 89.1 | –
N=C(N)c1ccc(CS(=O)(=O)F)cc1 [4-Amidinophenylmethanesulfonyl fluoride hydrochloride] | 109 | –
CC(CCc1ccccc1)NC(C)C(O)c1ccc(O)cc1 (stereo not drawn) | 56.4 | –
CC(CCc1ccccc1)NC(C)C(O)c1ccc(O)cc1 (stereo not drawn) [Nylidrin hydrochloride] | 61.7 | –
CC(CCc1ccccc1)NC(C)C(O)c1ccc(O)cc1 (stereo not drawn) [Nylidrin] | 91.2 | –
COc1cccc(C2(O)CCCCC2CN(C)C)c1 (stereo not drawn) | 79.1 | –
COc1cccc(C2(O)CCCCC2CN(C)C)c1 (stereo not drawn) [Tramadol hydrochloride] | 117 | –

Not a retest: entries from further up.
SMILES | HMGB1-induced TNF-alpha production (compound concentration: 3 uM) [%] | HMGB1-induced TNF-alpha production [1] [%]
Cc1ncc(CNC(=O)N(CCCl)N=O)c(N)n1 [Nimustine hydrochloride] | 113 | –
Cc1ncc(CNC(=O)N(CCCl)N=O)c(N)n1 | 85.2 ± 9.1 | –

The list goes on:

SMILES | HMGB1-induced TNF-alpha production (compound concentration: 3 uM) [%] | HMGB1-induced TNF-alpha production [1] [%]
COc1cccc(C2(O)CCCCC2CN(C)C)c1 (stereo not drawn) [Tramadol] | 96.6 ± 18 | –
CC(=O)OC1CN2CCC1CC2 (stereo not drawn) | 108 | –
CC1C2Cc3ccc(O)cc3C1(C)CCN2CC1CC1 (single isomer, unassigned; (+)) [(+)-Cyclazocine] | 77.9 | –
CN1C[C@H](C(=O)N[C@]2(C)O[C@@]3(O)[C@@H]4CCCN4C(=O)[C@H](Cc4ccccc4)N3C2=O)C[C@@H]2c3cccc4[nH]cc(c34)C[C@H]21 | 86.8 | –
CN1C[C@H](C(=O)N[C@]2(C)O[C@@]3(O)[C@@H]4CCCN4C(=O)[C@H](Cc4ccccc4)N3C2=O)C[C@@H]2c3cccc4[nH]cc(c34)C[C@H]21 [Dihydroergotamine tartrate] | 62 | –
CN1C[C@H](C(=O)N[C@]2(C)O[C@@]3(O)[C@@H]4CCCN4C(=O)[C@H](Cc4ccccc4)N3C2=O)C[C@@H]2c3cccc4[nH]cc(c34)C[C@H]21 [Dihydroergotamine mesylate] | – | 89.2
CN1C[C@H](C(=O)N[C@]2(C)O[C@@]3(O)[C@@H]4CCCN4C(=O)[C@H](Cc4ccccc4)N3C2=O)C[C@@H]2c3cccc4[nH]cc(c34)C[C@H]21 [Dihydroergotamine methanesulfonate] | 71.1 | –
CN1C[C@H](C(=O)N[C@]2(C)O[C@@]3(O)[C@@H]4CCCN4C(=O)[C@H](Cc4ccccc4)N3C2=O)C[C@@H]2c3cccc4[nH]cc(c34)C[C@H]21 [Dihydroergotamine] | 111 | –
O=C1NCN(c2ccccc2)C12CCN(CC1COc3ccccc3O1)CC2 (stereo not drawn) [Spiroxatrine] | 107.7 ± 0.61 | –
C[N+]1(C)[C@@H]2CC[C@H]1C[C@@H](OC(=O)C(CO)c1ccccc1)C2 (stereo partly drawn) [Atropine methyl bromide] | 93 | –
C[N+]1(C)[C@@H]2CC[C@H]1C[C@@H](OC(=O)C(CO)c1ccccc1)C2 (stereo partly drawn) [Methylatropine nitrate] | 112 | –
C[N+]1(C)[C@@H]2CC[C@H]1C[C@@H](OC(=O)C(CO)c1ccccc1)C2 (stereo partly drawn) | 90.2 | –
C[N+]1(C)[C@@H]2CC[C@H]1C[C@@H](OC(=O)C(CO)c1ccccc1)C2 (stereo partly drawn) [Atropine methyl nitrate] | 97.8 | –
c1ccc2nc(N3CCNCC3)ccc2c1 | 76.7 | –
c1ccc2nc(N3CCNCC3)ccc2c1 [Quipazine dimaleate salt] | 121 | –
C[N+](C)(C)CCCCCCCCCC[N+](C)(C)C [Decamethonium bromide] | 86.5 | –
C[N+](C)(C)CCCCCCCCCC[N+](C)(C)C [Decamethonium dibromide] | 81.4 | –
C[N+](C)(C)CCCCCCCCCC[N+](C)(C)C [Decamethonium] | 108 | –
C[N+](C)(C)CCCCCCCCCC[N+](C)(C)C | 90.4 | –
COc1ccc2[nH]c3c(c2c1)CCN=C3C [Methoxy-6-harmalan] | 92.9 | –
NCCc1c[nH]c2c(OCc3ccccc3)cccc12 [7-Benzyloxytryptamine] | – | 66.7
CN1CCC(c2c[nH]c3ccc(O)cc23)CC1 | 86.1 | –
CC(C)[C@@]1(NC(=O)[C@@H]2C[C@@H]3c4cccc5[nH]cc(c45)C[C@H]3N(C)C2)O[C@@]2(O)[C@@H]3CCCN3C(=O)[C@H](Cc3ccccc3)N2C1=O [Dihydroergocristine] | 74.7 | –
O=C1C=C2C=C[C@@H]3C[C@@]2(O1)[C@H]1CCCCN31 [Securinine] | – | 55.3
O=C1C=C2C=C[C@@H]3C[C@@]2(O1)[C@H]1CCCCN31 | 79.7 | –
C/C=C1/CN2CC[C@]34C(=C(C=O)[C@H]1C[C@H]23)Nc1ccccc14 | – | 73.1

Whole records as entered above. Order of values: HMGB1-induced TNF-alpha production (compound concentration: 3 uM) [%] | HMGB1-induced TNF-alpha production [1] [%]
C/C=C1/CN2CC[C@]34C(=C(C=O)[C@H]1C[C@H]23)Nc1ccccc14 is listed as – | 73.1
C[N+](C)(C)CCCCCCCCCC[N+](C)(C)C [Decamethonium dibromide] is listed as 81.4 | –

Following part

SMILES | HMGB1-induced TNF-alpha production (compound concentration: 3 uM) [%] | HMGB1-induced TNF-alpha production [1] [%]
CC(N)Cc1c[nH]c2ccc(OCc3cccs3)cc12 (stereo not drawn) | 98.4 | –
CCCC(C)C1(CC)C(=O)NC(=S)NC1=O (stereo not drawn) | 96.5 | –
COc1cc([C@@H]2c3cc4c(cc3[C@H](O)[C@H]3COC(=O)[C@@H]23)OCO4)cc(OC)c1OC | 119 | –
CN1CCC(c2ccc(F)cc2)C(COc2ccc3c(c2)OCO3)C1 (stereo not drawn) | 108 | –
CCN[C@@H](C)Cc1cccc(C(F)(F)F)c1 [Dexfenfluramine hydrochloride] | 103 | –
Oc1noc2c1CCNC2 | 80.5 | –
C[C@]12CCC(=O)C[C@@H]1CC[C@@H]1[C@@H]2CC[C@@]2(C)[C@H]1CC[C@]2(C)O [Mestanolone] | 114 | –
NC(=O)CN1CC(O)CC1=O (stereo not drawn) [Oxiracetam] | 97.7 | –
COc1ccc(CNC(=O)/C=C/c2ccc3[nH]cc(CCN(C)C)c3c2)cc1 | 84.3 | –
C[CH2][Hg][S]c1ccccc1C(=O)[O-].[Na+] | 1.85 ± 5.8 | –
C[CH2][Hg][S]c1ccccc1C(=O)[O-].[Na+] [Thimerosal] | 31.7 | –
C[N+](C)(C)CC#CCN1CCCC1=O [Oxotremorine methiodide] | 101 | –
NC(=O)c1ccc(OCC(O)CN2CC=C(c3ccc(F)cc3)CC2)cc1 (stereo not drawn) | 103 | –
CC(C)=CC1C(C(=O)OCc2cccc(Oc3ccccc3)c2)C1(C)C (stereo not drawn) | 73.9 | –
Cc1ncc2n1-c1ccc(Cl)cc1C(c1ccccc1F)=NC2 | 101 | –
CN(C)Cc1c[nH]c2ccccc12 [Gramine] | – | 62.3
C[N+]1(C)CCOC(O)(c2ccc(-c3ccc(C4(O)C[N+](C)(C)CCO4)cc3)cc2)C1 (stereo not drawn) [Hemicholinium bromide] | 86.5 | –
C[N+]1(C)CCOC(O)(c2ccc(-c3ccc(C4(O)C[N+](C)(C)CCO4)cc3)cc2)C1 (stereo not drawn) [Hemicholinium-3] | 75 | –
Nc1ccncc1 | 113 | –
Nc1ccncc1 [4-Aminopyridine] | 87.3 | –
C[C@]12CCC(=O)C=C1CC[C@@H]1[C@@H]2C(=O)C[C@]2(C)C(=O)CC[C@@H]12 [Adrenosterone] | 115 | –
COc1cc2c(cc1OC)-c1c(OC)c(OC)c(CO)c3c1C(C2)N(C)CC3 (stereo not drawn) | – | 67.7
CC[C@H](C)[C@H]1O[C@]2(C=C[C@@H]1C)C[C@@H]1C[C@@H](C/C=C(\C)[C@@H](O[C@H]3C[C@H](OC)[C@@H](O[C@H]4C[C@H](OC)[C@@H](O)[C@H](C)O4)[C@H](C)O3)[C@@H](C)/C=C/C=C3\CO[C@@H]4[C@H](O)C(C)=C[C@@H](C(=O)O1)[C@]34O)O2.CO[C@H]1C[C@H](O[C@H]2[C@H](C)O[C@@H](O[C@@H]3/C(C)=C/C[C@@H]4C[C@@H](C[C@]5(C=C[C@H](C)[C@@H](C(C)C)O5)O4)OC(=O)[C@@H]4C=C(C)[C@@H](O)[C@H]5OC/C(=C\C=C\[C@@H]3C)[C@]54O)C[C@@H]2OC)O[C@@H](C)[C@@H]1O | 84.7 | –
CC[C@H](C)[C@H]1O[C@]2(C=C[C@@H]1C)C[C@@H]1C[C@@H](C/C=C(\C)[C@@H](O[C@H]3C[C@H](OC)[C@@H](O[C@H]4C[C@H](OC)[C@@H](O)[C@H](C)O4)[C@H](C)O3)[C@@H](C)/C=C/C=C3\CO[C@@H]4[C@H](O)C(C)=C[C@@H](C(=O)O1)[C@]34O)O2.CO[C@H]1C[C@H](O[C@H]2[C@H](C)O[C@@H](O[C@@H]3/C(C)=C/C[C@@H]4C[C@@H](C[C@]5(C=C[C@H](C)[C@@H](C(C)C)O5)O4)OC(=O)[C@@H]4C=C(C)[C@@H](O)[C@H]5OC/C(=C\C=C\[C@@H]3C)[C@]54O)C[C@@H]2OC)O[C@@H](C)[C@@H]1O [Abamectin] | 89.9 | –
